Measurements as given in the supplement of paper PMC12823440, “Inhibitors supercharge kinase turnover through native proteolytic circuits” (Nature, 2025).
Counter-ions that a name gives are not always drawn. The list shows a part of the results. The calls rarely recur for the same compound in another form.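 In K562 cells expressing nanoluciferase-fused kinases, luminescence was recorded at 4 h intervals between 2 and 18 h, normalized as percent of control with DMSO at 100% and a positive control at 0%. A significant (2 sigma) signal drop marks a time point as decreased. The authors' rule for a hit is not shown and takes in more than the number of time points.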

Chains of the proteins cited; added tags and fusions are not shown. Lines headed by an entry give the natural chain unless they say otherwise; changes in a name come on top.
UniProt Q9Y616: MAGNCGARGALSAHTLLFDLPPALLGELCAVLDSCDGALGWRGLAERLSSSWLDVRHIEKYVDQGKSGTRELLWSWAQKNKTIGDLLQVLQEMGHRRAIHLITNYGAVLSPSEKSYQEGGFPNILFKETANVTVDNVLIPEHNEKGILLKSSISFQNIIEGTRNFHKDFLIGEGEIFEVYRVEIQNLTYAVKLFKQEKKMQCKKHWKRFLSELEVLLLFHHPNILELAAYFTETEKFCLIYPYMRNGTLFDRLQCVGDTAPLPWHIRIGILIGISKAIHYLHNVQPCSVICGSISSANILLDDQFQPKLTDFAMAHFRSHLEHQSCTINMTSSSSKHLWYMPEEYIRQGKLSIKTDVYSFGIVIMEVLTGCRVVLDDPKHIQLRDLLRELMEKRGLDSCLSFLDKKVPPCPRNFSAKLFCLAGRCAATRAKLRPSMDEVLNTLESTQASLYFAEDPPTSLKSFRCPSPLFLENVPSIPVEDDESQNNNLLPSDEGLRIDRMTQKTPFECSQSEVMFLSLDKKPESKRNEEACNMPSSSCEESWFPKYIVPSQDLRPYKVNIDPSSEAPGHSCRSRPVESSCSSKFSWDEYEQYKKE
UniProt P23458: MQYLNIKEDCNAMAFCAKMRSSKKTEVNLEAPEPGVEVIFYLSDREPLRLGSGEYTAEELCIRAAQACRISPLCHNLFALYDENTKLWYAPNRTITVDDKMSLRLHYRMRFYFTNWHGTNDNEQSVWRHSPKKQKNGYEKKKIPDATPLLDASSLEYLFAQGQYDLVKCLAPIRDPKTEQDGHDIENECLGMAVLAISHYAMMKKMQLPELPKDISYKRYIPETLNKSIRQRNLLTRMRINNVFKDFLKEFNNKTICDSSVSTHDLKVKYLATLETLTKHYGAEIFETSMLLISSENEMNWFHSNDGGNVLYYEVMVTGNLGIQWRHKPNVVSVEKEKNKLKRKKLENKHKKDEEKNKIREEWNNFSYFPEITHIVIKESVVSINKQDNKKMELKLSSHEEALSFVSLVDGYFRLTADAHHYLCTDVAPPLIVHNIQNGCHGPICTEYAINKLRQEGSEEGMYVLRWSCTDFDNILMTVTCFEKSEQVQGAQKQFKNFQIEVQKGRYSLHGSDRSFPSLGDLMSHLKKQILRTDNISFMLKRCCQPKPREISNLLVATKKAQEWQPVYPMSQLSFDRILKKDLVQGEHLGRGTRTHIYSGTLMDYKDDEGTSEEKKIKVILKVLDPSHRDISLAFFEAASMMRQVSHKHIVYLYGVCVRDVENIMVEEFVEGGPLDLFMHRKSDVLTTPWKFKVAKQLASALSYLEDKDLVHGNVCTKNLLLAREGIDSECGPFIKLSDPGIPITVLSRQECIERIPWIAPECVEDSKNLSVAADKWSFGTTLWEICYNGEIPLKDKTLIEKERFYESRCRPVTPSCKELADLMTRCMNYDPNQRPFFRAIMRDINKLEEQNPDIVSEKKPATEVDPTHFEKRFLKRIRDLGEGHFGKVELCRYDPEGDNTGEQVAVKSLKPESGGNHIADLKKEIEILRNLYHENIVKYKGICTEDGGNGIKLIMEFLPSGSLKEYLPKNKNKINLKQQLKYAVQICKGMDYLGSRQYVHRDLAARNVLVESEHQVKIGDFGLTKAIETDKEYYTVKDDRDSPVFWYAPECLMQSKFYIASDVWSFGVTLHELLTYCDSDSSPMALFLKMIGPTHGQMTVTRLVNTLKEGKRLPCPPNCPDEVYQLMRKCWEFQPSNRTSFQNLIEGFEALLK
UniProt P06239: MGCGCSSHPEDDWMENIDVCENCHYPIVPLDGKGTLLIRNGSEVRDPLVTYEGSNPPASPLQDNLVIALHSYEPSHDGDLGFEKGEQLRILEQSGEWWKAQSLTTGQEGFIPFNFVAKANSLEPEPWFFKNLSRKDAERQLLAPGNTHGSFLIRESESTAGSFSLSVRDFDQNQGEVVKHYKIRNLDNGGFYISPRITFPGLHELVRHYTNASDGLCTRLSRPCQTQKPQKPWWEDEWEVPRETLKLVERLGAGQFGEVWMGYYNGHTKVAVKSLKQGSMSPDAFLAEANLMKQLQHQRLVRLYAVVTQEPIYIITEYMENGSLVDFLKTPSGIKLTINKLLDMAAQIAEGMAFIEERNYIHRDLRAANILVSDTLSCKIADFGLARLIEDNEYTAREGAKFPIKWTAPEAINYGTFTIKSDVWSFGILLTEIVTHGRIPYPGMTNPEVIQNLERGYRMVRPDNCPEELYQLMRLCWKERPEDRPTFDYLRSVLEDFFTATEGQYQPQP
UniProt P53667: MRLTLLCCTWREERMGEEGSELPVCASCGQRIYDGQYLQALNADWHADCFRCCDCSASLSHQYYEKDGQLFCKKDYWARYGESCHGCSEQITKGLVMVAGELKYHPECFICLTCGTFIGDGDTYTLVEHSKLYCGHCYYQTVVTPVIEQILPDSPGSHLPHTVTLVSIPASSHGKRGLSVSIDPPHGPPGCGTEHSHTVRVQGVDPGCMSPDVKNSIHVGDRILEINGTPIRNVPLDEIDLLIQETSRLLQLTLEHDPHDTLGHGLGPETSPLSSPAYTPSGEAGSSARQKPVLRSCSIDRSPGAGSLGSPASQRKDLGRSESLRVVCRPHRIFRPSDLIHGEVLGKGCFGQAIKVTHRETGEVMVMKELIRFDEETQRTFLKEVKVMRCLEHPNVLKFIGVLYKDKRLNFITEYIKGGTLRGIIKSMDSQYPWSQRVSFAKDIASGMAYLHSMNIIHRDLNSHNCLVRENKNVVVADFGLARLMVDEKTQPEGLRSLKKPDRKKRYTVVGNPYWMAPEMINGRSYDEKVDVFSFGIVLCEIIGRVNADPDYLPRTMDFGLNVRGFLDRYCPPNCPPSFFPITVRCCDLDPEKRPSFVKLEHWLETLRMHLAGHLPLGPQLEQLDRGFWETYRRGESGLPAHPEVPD
UniProt P53671: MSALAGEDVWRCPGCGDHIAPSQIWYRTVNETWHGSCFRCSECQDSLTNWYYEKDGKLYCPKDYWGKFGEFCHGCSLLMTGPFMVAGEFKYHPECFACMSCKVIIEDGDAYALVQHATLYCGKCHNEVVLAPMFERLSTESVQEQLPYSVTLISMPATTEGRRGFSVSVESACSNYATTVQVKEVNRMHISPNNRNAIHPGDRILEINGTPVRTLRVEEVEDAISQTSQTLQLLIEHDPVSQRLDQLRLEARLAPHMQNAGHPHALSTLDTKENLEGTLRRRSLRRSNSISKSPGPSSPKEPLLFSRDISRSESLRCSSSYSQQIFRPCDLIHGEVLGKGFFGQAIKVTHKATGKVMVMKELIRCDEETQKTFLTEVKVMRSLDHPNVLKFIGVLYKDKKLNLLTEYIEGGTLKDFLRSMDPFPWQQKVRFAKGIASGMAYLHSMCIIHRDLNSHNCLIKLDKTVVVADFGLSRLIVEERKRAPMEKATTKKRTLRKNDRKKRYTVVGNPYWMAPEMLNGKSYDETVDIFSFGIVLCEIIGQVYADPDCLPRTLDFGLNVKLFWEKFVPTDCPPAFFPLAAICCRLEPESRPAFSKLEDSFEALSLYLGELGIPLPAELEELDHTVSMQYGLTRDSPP
UniProt Q8IWU2: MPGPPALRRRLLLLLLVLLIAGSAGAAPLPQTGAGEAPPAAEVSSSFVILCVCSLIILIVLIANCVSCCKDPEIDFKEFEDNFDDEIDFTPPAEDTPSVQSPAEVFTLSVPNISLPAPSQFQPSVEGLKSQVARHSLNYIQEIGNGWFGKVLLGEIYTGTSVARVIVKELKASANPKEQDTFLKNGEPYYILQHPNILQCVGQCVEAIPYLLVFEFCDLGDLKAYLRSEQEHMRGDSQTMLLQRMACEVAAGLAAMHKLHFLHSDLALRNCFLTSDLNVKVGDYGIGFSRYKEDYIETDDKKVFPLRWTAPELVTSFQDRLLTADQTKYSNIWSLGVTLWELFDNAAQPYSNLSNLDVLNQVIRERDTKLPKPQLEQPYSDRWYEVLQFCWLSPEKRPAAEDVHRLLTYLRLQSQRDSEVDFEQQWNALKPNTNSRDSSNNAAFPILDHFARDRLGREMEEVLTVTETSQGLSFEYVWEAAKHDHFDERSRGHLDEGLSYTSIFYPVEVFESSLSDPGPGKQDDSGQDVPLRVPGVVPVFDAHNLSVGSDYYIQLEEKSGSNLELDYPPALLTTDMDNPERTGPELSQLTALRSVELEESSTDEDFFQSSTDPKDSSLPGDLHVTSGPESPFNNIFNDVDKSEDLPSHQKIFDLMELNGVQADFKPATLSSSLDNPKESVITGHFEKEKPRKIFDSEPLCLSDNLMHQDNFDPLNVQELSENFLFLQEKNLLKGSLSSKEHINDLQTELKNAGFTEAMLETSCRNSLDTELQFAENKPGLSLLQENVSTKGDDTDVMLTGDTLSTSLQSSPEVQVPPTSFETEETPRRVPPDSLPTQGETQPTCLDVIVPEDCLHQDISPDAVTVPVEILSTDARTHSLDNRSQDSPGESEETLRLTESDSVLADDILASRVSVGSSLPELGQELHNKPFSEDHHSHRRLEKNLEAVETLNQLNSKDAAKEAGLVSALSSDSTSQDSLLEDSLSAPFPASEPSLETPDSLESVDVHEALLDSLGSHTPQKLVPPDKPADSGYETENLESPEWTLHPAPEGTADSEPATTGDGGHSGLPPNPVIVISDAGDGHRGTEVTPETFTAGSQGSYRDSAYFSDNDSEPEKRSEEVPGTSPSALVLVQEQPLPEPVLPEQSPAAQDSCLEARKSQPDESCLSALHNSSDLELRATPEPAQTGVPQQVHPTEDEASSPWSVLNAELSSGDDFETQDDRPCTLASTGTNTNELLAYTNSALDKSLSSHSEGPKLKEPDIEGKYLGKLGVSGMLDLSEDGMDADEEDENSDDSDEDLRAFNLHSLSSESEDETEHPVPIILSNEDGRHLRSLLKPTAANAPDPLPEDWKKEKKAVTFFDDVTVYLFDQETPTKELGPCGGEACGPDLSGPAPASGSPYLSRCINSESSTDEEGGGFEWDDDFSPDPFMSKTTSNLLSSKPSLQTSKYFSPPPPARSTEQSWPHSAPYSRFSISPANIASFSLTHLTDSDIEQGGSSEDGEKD
UniProt P07948: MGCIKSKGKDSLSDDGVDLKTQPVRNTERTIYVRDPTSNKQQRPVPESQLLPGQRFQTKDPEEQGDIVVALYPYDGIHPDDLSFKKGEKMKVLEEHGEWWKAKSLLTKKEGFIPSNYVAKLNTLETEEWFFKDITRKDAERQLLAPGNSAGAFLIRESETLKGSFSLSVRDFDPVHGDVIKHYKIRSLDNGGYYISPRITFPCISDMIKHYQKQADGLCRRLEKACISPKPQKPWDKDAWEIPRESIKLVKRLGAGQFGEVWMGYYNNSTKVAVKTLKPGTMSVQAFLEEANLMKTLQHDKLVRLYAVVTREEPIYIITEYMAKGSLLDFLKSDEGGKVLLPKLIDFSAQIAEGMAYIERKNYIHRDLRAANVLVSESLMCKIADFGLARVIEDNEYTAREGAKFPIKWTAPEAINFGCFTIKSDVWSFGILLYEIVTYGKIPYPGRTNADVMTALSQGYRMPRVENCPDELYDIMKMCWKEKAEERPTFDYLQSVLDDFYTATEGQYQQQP
UniProt Q12851: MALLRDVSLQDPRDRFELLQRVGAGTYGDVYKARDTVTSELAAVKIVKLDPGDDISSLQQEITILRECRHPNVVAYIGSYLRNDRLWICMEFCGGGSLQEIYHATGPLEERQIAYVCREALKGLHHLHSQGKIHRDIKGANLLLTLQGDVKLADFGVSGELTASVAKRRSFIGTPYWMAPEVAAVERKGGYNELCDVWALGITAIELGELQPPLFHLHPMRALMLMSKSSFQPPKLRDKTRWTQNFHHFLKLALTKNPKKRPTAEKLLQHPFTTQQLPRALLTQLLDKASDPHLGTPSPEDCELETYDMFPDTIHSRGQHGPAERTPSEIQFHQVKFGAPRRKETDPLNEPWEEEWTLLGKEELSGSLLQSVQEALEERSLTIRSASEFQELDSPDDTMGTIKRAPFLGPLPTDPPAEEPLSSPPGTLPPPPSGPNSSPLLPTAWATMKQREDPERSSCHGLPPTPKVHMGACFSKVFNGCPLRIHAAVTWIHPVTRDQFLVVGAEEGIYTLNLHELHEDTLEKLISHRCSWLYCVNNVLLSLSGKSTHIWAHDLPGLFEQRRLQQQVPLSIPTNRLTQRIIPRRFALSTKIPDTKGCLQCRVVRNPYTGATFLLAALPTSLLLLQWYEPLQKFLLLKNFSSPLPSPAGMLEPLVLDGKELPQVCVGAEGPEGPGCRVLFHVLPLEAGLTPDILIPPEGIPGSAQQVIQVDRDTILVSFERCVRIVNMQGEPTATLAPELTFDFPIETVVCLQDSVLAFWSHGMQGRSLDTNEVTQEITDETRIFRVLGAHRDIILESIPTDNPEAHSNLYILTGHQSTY

Key:
Experiment in all cases: kinase-Nluc reporter destabilization hit call (1 = scored as downregulated) (binary); higher = compound decreases kinase abundance
Conditions in all cases: K562, 2-18 h
[1] = target: IRAK3 (UniProt Q9Y616)
[2] = target: JAK1 (UniProt P23458)
[3] = target: LCK (UniProt P06239)
[4] = target: LIMK1 (UniProt P53667)
[5] = target: LIMK2 (UniProt P53671)
[6] = target: LMTK2 (UniProt Q8IWU2)
[7] = target: LYN (UniProt P07948)
[8] = target: MAP2K1 (UniProt Q02750)
[9] = target: MAP2K2 (UniProt P36507)
[10] = target: MAP4K2 (UniProt Q12851)

Measured: kinase-Nluc reporter destabilization hit call

CS(=O)(=O)N1CCN(Cc2cc3nc(-c4cccc5[nH]ncc45)nc(N4CCOCC4)c3s2)CC1 [Pictilisib (dimethanesulfonate)]
inactive: [1]; 10 µM 0 | [2]; 10 µM 0 | [3]; 10 µM 0 | [4]; 10 µM 0 | [5]; 10 µM 0 | [6]; 10 µM 0 | [7]; 10 µM 0 | [8]; 10 µM 0 | [9]; 10 µM 0 | [10]; 10 µM 0

CNC(=O)c1ccc(Nc2ncc(C(F)(F)F)c(NCc3nccnc3N(C)S(C)(=O)=O)n2)cc1 [Defactinib (hydrochloride)]
inactive: [1]; 10 µM 0 | [2]; 10 µM 0 | [3]; 10 µM 0 | [4]; 10 µM 0 | [5]; 10 µM 0 | [6]; 10 µM 0 | [7]; 10 µM 0 | [8]; 10 µM 0 | [9]; 10 µM 0 | [10]; 10 µM 0

CCc1nc(C(N)=O)c(Nc2ccc(N3CCC(N4CCN(C)CC4)CC3)c(OC)c2)nc1NC1CCOCC1 [Gilteritinib hemifumarate]
inactive: [1]; 2 µM 0 | [2]; 2 µM 0 | [3]; 2 µM 0 | [4]; 2 µM 0 | [5]; 2 µM 0 | [6]; 2 µM 0 | [7]; 2 µM 0 | [8]; 2 µM 0 | [9]; 2 µM 0 | [10]; 2 µM 0

CS(=O)(=O)N1CCN(Cc2cc3nc(-c4cccc5[nH]ncc45)nc(N4CCOCC4)c3s2)CC1 [Pictilisib]
inactive: [1]; 10 µM 0 | [2]; 10 µM 0 | [3]; 10 µM 0 | [4]; 10 µM 0 | [5]; 10 µM 0 | [6]; 10 µM 0 | [7]; 10 µM 0 | [8]; 10 µM 0 | [9]; 10 µM 0 | [10]; 10 µM 0

C=CC(=O)Nc1cc(Nc2nccc(-c3cn(C)c4ccccc34)n2)c(OC)cc1N(C)CCN(C)C [Osimertinib]
inactive: [1]; 2.5 µM 0 | [2]; 2.5 µM 0 | [3]; 2.5 µM 0 | [4]; 2.5 µM 0 | [5]; 2.5 µM 0 | [6]; 2.5 µM 0 | [7]; 2.5 µM 0 | [8]; 2.5 µM 0 | [9]; 2.5 µM 0 | [10]; 2.5 µM 0

CCS(=O)(=O)N1CCN(c2ccc(Nc3ncc(C(N)=O)c(NC4CC4)n3)cc2)CC1 [Cerdulatinib (hydrochloride)]
inactive: [1]; 10 µM 0 | [2]; 10 µM 0 | [3]; 10 µM 0 | [4]; 10 µM 0 | [5]; 10 µM 0 | [6]; 10 µM 0 | [7]; 10 µM 0 | [8]; 10 µM 0 | [9]; 10 µM 0 | [10]; 10 µM 0

Cc1[nH]c(/C=C2\C(=O)Nc3ccc(F)cc32)c(C)c1C(=O)NCCN1CCCC1 [Toceranib]
inactive: [1]; 2 µM 0 | [2]; 2 µM 0 | [3]; 2 µM 0 | [4]; 2 µM 0 | [5]; 2 µM 0 | [6]; 2 µM 0 | [7]; 2 µM 0 | [8]; 2 µM 0 | [9]; 2 µM 0 | [10]; 2 µM 0

c1cc(-c2cnn3cc(-c4ccc(OCCN5CCCCC5)cc4)cnc23)ccn1 [Dorsomorphin (dihydrochloride)]
inactive: [1]; 2.5 µM 0 | [2]; 2.5 µM 0 | [3]; 2.5 µM 0 | [4]; 2.5 µM 0 | [5]; 2.5 µM 0 | [6]; 2.5 µM 0 | [7]; 2.5 µM 0 | [8]; 2.5 µM 0 | [9]; 2.5 µM 0 | [10]; 2.5 µM 0

CCS(=O)(=O)N1CCN(c2ccc(Nc3ncc(C(N)=O)c(NC4CC4)n3)cc2)CC1 [Cerdulatinib]
inactive: [1]; 10 µM 0 | [2]; 10 µM 0 | [3]; 10 µM 0 | [4]; 10 µM 0 | [5]; 10 µM 0 | [7]; 10 µM 0 | [8]; 10 µM 0 | [9]; 10 µM 0 | [10]; 10 µM 0
active: [6]; 10 µM 1

O=C1Nc2ccccc2/C1=C/c1ccccn1 [GSK-3β inhibitor 1]
inactive: [1]; 10 µM 0 | [2]; 10 µM 0 | [3]; 10 µM 0 | [4]; 10 µM 0 | [5]; 10 µM 0 | [6]; 10 µM 0 | [7]; 10 µM 0 | [8]; 10 µM 0 | [9]; 10 µM 0 | [10]; 10 µM 0

CC(C)Nc1cc(-c2c[nH]c(C(=O)N[C@H](CO)c3cccc(Cl)c3)c2)c(Cl)cn1 [Ulixertinib]
inactive: [1]; 10 µM 0 | [2]; 10 µM 0 | [3]; 10 µM 0 | [4]; 10 µM 0 | [5]; 10 µM 0 | [6]; 10 µM 0 | [7]; 10 µM 0 | [8]; 10 µM 0 | [9]; 10 µM 0 | [10]; 10 µM 0

N#CCC1(n2cc(-c3ncnc4[nH]ccc34)cn2)CN(C2CCN(C(=O)c3ccnc(C(F)(F)F)c3F)CC2)C1 [Itacitinib adipate]
inactive: [1]; 10 µM 0 | [2]; 10 µM 0 | [3]; 10 µM 0 | [4]; 10 µM 0 | [5]; 10 µM 0 | [6]; 10 µM 0 | [7]; 10 µM 0 | [8]; 10 µM 0 | [9]; 10 µM 0 | [10]; 10 µM 0

Cn1ncc(Cl)c1-c1cc(C(=O)N[C@H](CN)Cc2cccc(F)c2)sc1Cl [Afuresertib (hydrochloride)]
inactive: [1]; 10 µM 0 | [2]; 10 µM 0 | [3]; 10 µM 0 | [4]; 10 µM 0 | [5]; 10 µM 0 | [6]; 10 µM 0 | [7]; 10 µM 0 | [8]; 10 µM 0 | [9]; 10 µM 0 | [10]; 10 µM 0

COc1ccc(S(=O)(=O)N(CCO)c2ccccc2CN(C)C/C=C/c2ccc(Cl)cc2)cc1 [KN-93 (hydrochloride)]
inactive: [1]; 2.5 µM 0 | [2]; 2.5 µM 0 | [3]; 2.5 µM 0 | [4]; 2.5 µM 0 | [5]; 2.5 µM 0 | [6]; 2.5 µM 0 | [7]; 2.5 µM 0 | [8]; 2.5 µM 0 | [9]; 2.5 µM 0 | [10]; 2.5 µM 0
